Data as given in PubChem BioAssay AID1224830 (NIAID, 2016)

- Aim: 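Regulators of TLR4 signalling towards TNF-alpha in macrophage-like cells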 (primary screen)
- Cells: human THP-1 monocytic leukaemia cells, TNF dual-luciferase reporter clone, PMA-differentiated to macrophage-like cells
- Reagent: siRNA pool against human genes, 50 nM
- Time to read-out: LPS for 4 h, given about 3 days after siRNA transfection
- Treatment: bacterial LPS (TLR4 ligand), 10 ng/ml
- Detection: 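TNF firefly reporter luminescence divided by renilla, normalised to the plate median, then turned into a robust z-score for each replicate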
- Reading the numbers: TNF reporter robust z-score: higher = stronger TNF reporter response to LPS
- Rule for the call: 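Each well counts as active if its z-score is over 2.8 or under -1.5; controls are left without a call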
This is an unselected part of about 18,000 reagents. About 2,900 of them (16%) were called active. 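Calls are made per well; low scores hint the gene aids the LPS response, high scores that it dampens it.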 Repeated entries: four replicate wells of each siRNA pool.

| gene | TNF reporter robust z-score | Call |
| --- | --- | --- |
| APRT (GeneID 353) | -1.41 | inactive |
| APRT (GeneID 353) | -0.81 | inactive |
| APRT (GeneID 353) | -0.56 | inactive |
| APRT (GeneID 353) | -0.66 | inactive |
| TMEM217 (GeneID 221468) | -0.75 | inactive |
| TMEM217 (GeneID 221468) | -0.59 | inactive |
| TMEM217 (GeneID 221468) | -0.39 | inactive |
| TMEM217 (GeneID 221468) | -0.27 | inactive |
| ABI1 (GeneID 10006) | -1.96 | active |
| ABI1 (GeneID 10006) | -1.16 | inactive |
| ABI1 (GeneID 10006) | -1.3 | inactive |
| ABI1 (GeneID 10006) | -1.66 | active |
| ZIC4 (GeneID 84107) | -0.16 | inactive |
| ZIC4 (GeneID 84107) | -0.2 | inactive |
| ZIC4 (GeneID 84107) | 1.31 | inactive |
| ZIC4 (GeneID 84107) | -0.11 | inactive |
| ZNF385C (GeneID 201181) | 0.33 | inactive |
| ZNF385C (GeneID 201181) | 0.17 | inactive |
| ZNF385C (GeneID 201181) | -0.25 | inactive |
| ZNF385C (GeneID 201181) | 0.54 | inactive |
| TRIM38 (GeneID 10475) | 0.23 | inactive |
| TRIM38 (GeneID 10475) | -0.91 | inactive |
| TRIM38 (GeneID 10475) | -0.67 | inactive |
| TRIM38 (GeneID 10475) | 0.84 | inactive |
| POLR1F (GeneID 221830) | -0.94 | inactive |
| POLR1F (GeneID 221830) | -1.3 | inactive |
| POLR1F (GeneID 221830) | -1.35 | inactive |
| POLR1F (GeneID 221830) | -0.78 | inactive |
| BTNL3 (GeneID 10917) | -1.24 | inactive |
| BTNL3 (GeneID 10917) | -0.13 | inactive |
| BTNL3 (GeneID 10917) | -0.19 | inactive |
| BTNL3 (GeneID 10917) | -0.34 | inactive |
| CLCN4 (GeneID 1183) | 0.29 | inactive |
| CLCN4 (GeneID 1183) | 0.95 | inactive |
| CLCN4 (GeneID 1183) | -0.03 | inactive |
| CLCN4 (GeneID 1183) | 2.97 | active |
| TNFRSF14 (GeneID 8764) | -0.34 | inactive |
| TNFRSF14 (GeneID 8764) | -0.37 | inactive |
| TNFRSF14 (GeneID 8764) | -0.36 | inactive |
| TNFRSF14 (GeneID 8764) | 0.08 | inactive |
| KRTAP19-4 (GeneID 337971) | 2.1 | inactive |
| KRTAP19-4 (GeneID 337971) | 0.4 | inactive |
| KRTAP19-4 (GeneID 337971) | 0.19 | inactive |
| KRTAP19-4 (GeneID 337971) | 0.62 | inactive |

5 successive records already listed, for reference:
| gene | TNF reporter robust z-score | Call |
| --- | --- | --- |
| TMEM217 (GeneID 221468) | -0.75 | inactive |
| TMEM217 (GeneID 221468) | -0.59 | inactive |
| TMEM217 (GeneID 221468) | -0.39 | inactive |
| TMEM217 (GeneID 221468) | -0.27 | inactive |
| ABI1 (GeneID 10006) | -1.96 | active |

The results go on:
| gene | TNF reporter robust z-score | Call |
| --- | --- | --- |
| GTPBP4 (GeneID 23560) | -0.12 | inactive |
| GTPBP4 (GeneID 23560) | -0.55 | inactive |
| GTPBP4 (GeneID 23560) | -0.35 | inactive |
| GTPBP4 (GeneID 23560) | -0.22 | inactive |
| CCDC13 (GeneID 152206) | -0.37 | inactive |
| CCDC13 (GeneID 152206) | -0.39 | inactive |
| CCDC13 (GeneID 152206) | 0.46 | inactive |
| CCDC13 (GeneID 152206) | -0.27 | inactive |
| SH3D19 (GeneID 152503) | -1.46 | inactive |
| SH3D19 (GeneID 152503) | -1.25 | inactive |
| SH3D19 (GeneID 152503) | -1.45 | inactive |
| SH3D19 (GeneID 152503) | -1.31 | inactive |
| KCNQ3 (GeneID 3786) | 0.02 | inactive |
| KCNQ3 (GeneID 3786) | 1.21 | inactive |
| KCNQ3 (GeneID 3786) | -0.89 | inactive |
| KCNQ3 (GeneID 3786) | 0.94 | inactive |
| RASSF2 (GeneID 9770) | 2.26 | inactive |
| RASSF2 (GeneID 9770) | 0.45 | inactive |
| RASSF2 (GeneID 9770) | 0.46 | inactive |
| RASSF2 (GeneID 9770) | 1.74 | inactive |
| DPP6 (GeneID 1804) | -0.63 | inactive |
| DPP6 (GeneID 1804) | 0.65 | inactive |
| DPP6 (GeneID 1804) | -0.1 | inactive |
| DPP6 (GeneID 1804) | 0.23 | inactive |
| MIGA2 (GeneID 84895) | 0.86 | inactive |
| MIGA2 (GeneID 84895) | 1.75 | inactive |
| MIGA2 (GeneID 84895) | 0.39 | inactive |
| MIGA2 (GeneID 84895) | -0.3 | inactive |
| SPATA32 (GeneID 124783) | -0.29 | inactive |
| SPATA32 (GeneID 124783) | -0.41 | inactive |
| SPATA32 (GeneID 124783) | -0.05 | inactive |
| SPATA32 (GeneID 124783) | -0.14 | inactive |
| MRC2 (GeneID 9902) | -0.08 | inactive |
| MRC2 (GeneID 9902) | 2.65 | inactive |
| MRC2 (GeneID 9902) | 2.24 | inactive |
| MRC2 (GeneID 9902) | 1.02 | inactive |
| GJA5 (GeneID 2702) | -0.26 | inactive |
| GJA5 (GeneID 2702) | 1.09 | inactive |
| GJA5 (GeneID 2702) | 1.11 | inactive |
| GJA5 (GeneID 2702) | 0.83 | inactive |
| GIGYF2 (GeneID 26058) | 0.04 | inactive |
| GIGYF2 (GeneID 26058) | 1.62 | inactive |
| GIGYF2 (GeneID 26058) | 0.96 | inactive |
| GIGYF2 (GeneID 26058) | -0.34 | inactive |
| PIWIL1 (GeneID 9271) | -0.58 | inactive |
| PIWIL1 (GeneID 9271) | -1.34 | inactive |
| PIWIL1 (GeneID 9271) | -2.18 | active |
| PIWIL1 (GeneID 9271) | -1.77 | active |
| GPR152 (GeneID 390212) | 0.06 | inactive |
| GPR152 (GeneID 390212) | 1.15 | inactive |
| GPR152 (GeneID 390212) | 0.72 | inactive |
| GPR152 (GeneID 390212) | 1.03 | inactive |
| WDR48 (GeneID 57599) | -0.08 | inactive |
| WDR48 (GeneID 57599) | -0.04 | inactive |
| WDR48 (GeneID 57599) | 1.27 | inactive |
| WDR48 (GeneID 57599) | 1.17 | inactive |
| POMK (GeneID 84197) | -1.48 | inactive |
| POMK (GeneID 84197) | -1.75 | active |
| POMK (GeneID 84197) | 0.46 | inactive |
| POMK (GeneID 84197) | 0.69 | inactive |
| TAF8 (GeneID 129685) | 1 | inactive |
| TAF8 (GeneID 129685) | 0.13 | inactive |
| TAF8 (GeneID 129685) | 1.72 | inactive |
| TAF8 (GeneID 129685) | -0.22 | inactive |
| CHRD (GeneID 8646) | -0.17 | inactive |
| CHRD (GeneID 8646) | 0.32 | inactive |
| CHRD (GeneID 8646) | 1.12 | inactive |
| CHRD (GeneID 8646) | 0.37 | inactive |
